According to publication PMC13035864:
These are yes or no findings as the source states them, for the method shown. Binding seen in cells or lysates may run through a third protein. Some entries that bind do so weakly or less than the wild type. Values belong to the substance of their own block, whether it stands above or below them.

Sequences of proteins named here, by UniProt entry; tags and fusion partners are left off.
UniProt Q9UPY5: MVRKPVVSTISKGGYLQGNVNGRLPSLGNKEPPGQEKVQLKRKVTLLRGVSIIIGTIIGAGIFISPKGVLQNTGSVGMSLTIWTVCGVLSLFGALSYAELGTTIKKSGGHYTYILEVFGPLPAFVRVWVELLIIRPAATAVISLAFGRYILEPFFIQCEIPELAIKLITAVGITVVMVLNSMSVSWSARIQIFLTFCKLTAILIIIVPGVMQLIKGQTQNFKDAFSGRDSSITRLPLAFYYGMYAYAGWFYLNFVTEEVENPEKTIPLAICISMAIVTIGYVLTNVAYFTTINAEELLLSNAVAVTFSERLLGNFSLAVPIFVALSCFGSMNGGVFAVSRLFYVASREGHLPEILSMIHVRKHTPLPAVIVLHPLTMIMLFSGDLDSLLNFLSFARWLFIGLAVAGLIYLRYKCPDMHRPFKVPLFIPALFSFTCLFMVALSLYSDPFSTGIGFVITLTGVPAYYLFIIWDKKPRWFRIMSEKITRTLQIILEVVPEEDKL
UniProt P19474: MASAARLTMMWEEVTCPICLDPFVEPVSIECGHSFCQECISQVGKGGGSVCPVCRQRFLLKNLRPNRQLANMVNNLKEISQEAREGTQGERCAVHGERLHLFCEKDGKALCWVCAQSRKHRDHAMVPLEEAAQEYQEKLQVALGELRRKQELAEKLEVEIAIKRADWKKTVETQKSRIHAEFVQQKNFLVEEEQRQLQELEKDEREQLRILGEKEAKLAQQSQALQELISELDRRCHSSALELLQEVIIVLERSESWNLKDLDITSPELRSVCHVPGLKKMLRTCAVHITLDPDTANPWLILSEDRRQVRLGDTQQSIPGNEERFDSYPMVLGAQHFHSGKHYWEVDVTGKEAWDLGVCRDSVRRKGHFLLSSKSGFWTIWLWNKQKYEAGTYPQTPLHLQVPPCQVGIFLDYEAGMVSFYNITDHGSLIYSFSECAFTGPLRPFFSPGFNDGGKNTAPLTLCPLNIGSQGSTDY

Tests used:
[1] = target: SLC7A11 used in the GST pull-down of Fig. 8C (UniProt Q9UPY5); test: pull-down; GST pull-down of TRIM21 and SLC7A11 with CCDC7_(19-13) or empty vector (EV) as control
[2] = target: SLC7A11 construct of the BRET assay (UniProt Q9UPY5); test: FRET or BRET; Bioluminescence Resonance Energy Transfer (BRET) assay, normalized relative light units (RLU)
[3] = target: SLC7A11 in PC3 and DU145 cells (human (endogenous in PC3 and DU145)) (UniProt Q9UPY5); test: co-IP; PC3 and DU145 cells; immunoprecipitation with anti-Flag, anti-HA or control IgG antibodies, Western blotting for SLC7A11, CCDC7_(19-13) and TRIM21
[4] = target: SLC7A11 in PC3 and DU145 cells (human (endogenous in PC3 and DU145)) (UniProt Q9UPY5); test: co-IP; PC3 and DU145 cells; SLC7A11 immunoprecipitated and TRIM21 detected by Western blotting, and the reverse

binding [1]: binds
Substance: TRIM21 used in the GST pull-down of Fig. 8C (from UniProt P19474 1-475) (enzyme)

binding [2]: binds
Substance: TRIM21 construct of the BRET assay (from UniProt P19474 1-475) (enzyme)

binding [3]: binds
binding [4]: binds
Substance: TRIM21 in PC3 and DU145 cells (from UniProt P19474 1-475) (enzyme)
